Source: publication PMC4172902
Read-outs that look alike come from different tables or passages of the source. These are yes or no findings as the source states them, for the method shown. Binding seen in cells or lysates may run through a third protein. Some results given as binding are weak or reduced against the parent protein; the word gives no strength. Sequences can lack the tags named with a protein. One block for each molecule: values may come before it.

Sequences of proteins named here, by UniProt entry; tags and fusion partners are left off.
UniProt P40337: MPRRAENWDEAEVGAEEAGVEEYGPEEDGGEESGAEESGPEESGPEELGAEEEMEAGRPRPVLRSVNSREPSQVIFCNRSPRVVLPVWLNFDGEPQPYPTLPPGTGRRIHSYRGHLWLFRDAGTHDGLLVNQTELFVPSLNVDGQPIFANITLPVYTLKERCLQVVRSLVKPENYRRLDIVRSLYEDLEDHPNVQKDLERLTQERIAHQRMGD
UniProt Q14160: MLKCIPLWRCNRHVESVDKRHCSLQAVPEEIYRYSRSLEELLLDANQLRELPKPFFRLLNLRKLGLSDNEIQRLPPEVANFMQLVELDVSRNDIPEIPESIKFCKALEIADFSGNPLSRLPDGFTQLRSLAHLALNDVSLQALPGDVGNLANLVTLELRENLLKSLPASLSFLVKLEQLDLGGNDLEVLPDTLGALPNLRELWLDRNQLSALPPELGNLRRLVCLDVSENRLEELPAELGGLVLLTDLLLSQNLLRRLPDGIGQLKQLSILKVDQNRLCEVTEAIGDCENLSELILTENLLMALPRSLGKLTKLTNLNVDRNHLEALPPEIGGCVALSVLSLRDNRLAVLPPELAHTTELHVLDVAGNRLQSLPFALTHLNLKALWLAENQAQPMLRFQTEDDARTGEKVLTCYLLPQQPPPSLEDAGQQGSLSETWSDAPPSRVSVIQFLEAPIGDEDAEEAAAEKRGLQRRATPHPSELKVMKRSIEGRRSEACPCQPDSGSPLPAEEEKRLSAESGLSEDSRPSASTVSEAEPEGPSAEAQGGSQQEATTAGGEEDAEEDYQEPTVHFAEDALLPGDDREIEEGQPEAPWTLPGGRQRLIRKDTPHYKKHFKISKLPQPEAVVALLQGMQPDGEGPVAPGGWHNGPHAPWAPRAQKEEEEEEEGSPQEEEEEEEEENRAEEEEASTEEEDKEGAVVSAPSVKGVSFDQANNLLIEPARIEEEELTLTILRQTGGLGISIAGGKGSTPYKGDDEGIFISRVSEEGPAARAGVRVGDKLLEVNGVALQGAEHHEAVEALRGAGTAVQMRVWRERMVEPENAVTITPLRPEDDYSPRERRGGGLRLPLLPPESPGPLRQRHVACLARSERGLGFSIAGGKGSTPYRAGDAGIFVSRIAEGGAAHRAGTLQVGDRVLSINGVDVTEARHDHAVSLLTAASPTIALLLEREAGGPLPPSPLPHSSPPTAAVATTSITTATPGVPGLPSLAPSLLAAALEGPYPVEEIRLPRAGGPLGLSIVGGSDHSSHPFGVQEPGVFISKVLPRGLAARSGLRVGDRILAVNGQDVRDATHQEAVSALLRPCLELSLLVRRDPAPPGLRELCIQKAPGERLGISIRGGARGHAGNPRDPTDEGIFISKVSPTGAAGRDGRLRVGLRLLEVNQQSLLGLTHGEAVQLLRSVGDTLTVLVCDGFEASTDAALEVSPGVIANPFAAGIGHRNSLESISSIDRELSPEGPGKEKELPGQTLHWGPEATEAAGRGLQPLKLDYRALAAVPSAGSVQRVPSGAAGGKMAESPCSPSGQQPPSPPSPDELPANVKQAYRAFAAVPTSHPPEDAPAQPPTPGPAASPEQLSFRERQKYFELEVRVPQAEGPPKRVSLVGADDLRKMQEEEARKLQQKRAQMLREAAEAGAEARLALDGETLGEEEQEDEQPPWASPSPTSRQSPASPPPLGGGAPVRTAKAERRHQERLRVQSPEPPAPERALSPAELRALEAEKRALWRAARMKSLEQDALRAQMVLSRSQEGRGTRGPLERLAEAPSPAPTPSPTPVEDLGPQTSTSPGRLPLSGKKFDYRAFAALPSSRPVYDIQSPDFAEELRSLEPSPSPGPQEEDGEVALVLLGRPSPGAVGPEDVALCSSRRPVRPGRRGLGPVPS
UniProt P35222: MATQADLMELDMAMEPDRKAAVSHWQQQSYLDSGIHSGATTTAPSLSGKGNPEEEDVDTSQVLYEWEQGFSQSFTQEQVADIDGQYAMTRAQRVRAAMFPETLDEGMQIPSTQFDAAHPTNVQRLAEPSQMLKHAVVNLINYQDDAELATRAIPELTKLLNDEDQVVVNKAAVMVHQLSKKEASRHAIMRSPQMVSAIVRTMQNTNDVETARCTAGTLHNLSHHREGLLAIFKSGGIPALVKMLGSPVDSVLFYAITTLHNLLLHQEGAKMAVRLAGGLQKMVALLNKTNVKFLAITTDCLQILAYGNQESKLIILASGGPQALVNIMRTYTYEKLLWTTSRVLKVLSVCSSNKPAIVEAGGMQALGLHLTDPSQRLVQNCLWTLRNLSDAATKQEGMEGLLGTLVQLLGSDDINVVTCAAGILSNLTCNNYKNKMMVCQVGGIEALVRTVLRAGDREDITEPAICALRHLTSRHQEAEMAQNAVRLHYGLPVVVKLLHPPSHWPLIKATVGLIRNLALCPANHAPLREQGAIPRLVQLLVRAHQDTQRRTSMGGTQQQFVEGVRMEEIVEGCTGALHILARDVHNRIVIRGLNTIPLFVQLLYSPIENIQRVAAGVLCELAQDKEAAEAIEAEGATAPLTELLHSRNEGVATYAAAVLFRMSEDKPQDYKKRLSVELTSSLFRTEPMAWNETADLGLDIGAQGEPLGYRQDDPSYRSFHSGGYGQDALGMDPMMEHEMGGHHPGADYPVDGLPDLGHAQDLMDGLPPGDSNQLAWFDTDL
UniProt P09874: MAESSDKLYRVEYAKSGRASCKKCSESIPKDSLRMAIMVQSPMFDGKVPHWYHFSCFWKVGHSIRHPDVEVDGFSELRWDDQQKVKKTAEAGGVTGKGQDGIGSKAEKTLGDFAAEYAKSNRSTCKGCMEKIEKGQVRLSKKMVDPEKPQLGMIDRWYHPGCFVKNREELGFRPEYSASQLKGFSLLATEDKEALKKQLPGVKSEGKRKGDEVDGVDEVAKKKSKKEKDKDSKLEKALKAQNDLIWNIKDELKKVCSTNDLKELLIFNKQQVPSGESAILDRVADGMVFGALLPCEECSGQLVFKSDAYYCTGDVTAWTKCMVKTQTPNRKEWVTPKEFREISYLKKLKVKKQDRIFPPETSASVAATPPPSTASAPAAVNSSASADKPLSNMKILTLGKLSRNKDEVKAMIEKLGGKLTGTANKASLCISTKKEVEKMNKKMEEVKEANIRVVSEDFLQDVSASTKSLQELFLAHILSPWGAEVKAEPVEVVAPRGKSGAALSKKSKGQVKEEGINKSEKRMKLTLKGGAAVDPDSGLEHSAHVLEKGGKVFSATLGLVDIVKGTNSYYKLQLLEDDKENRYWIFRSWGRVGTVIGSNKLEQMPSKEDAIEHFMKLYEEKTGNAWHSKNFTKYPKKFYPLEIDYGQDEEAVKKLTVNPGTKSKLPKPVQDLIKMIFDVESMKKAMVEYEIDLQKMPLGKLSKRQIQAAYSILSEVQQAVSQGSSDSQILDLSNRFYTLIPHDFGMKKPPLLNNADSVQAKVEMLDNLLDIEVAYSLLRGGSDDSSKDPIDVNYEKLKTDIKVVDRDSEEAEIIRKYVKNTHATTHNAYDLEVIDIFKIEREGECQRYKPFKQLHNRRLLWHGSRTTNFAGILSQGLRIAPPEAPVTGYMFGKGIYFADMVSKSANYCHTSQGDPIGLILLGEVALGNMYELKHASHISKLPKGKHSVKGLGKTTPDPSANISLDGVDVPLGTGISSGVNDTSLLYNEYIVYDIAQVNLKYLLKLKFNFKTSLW
UniProt P35580: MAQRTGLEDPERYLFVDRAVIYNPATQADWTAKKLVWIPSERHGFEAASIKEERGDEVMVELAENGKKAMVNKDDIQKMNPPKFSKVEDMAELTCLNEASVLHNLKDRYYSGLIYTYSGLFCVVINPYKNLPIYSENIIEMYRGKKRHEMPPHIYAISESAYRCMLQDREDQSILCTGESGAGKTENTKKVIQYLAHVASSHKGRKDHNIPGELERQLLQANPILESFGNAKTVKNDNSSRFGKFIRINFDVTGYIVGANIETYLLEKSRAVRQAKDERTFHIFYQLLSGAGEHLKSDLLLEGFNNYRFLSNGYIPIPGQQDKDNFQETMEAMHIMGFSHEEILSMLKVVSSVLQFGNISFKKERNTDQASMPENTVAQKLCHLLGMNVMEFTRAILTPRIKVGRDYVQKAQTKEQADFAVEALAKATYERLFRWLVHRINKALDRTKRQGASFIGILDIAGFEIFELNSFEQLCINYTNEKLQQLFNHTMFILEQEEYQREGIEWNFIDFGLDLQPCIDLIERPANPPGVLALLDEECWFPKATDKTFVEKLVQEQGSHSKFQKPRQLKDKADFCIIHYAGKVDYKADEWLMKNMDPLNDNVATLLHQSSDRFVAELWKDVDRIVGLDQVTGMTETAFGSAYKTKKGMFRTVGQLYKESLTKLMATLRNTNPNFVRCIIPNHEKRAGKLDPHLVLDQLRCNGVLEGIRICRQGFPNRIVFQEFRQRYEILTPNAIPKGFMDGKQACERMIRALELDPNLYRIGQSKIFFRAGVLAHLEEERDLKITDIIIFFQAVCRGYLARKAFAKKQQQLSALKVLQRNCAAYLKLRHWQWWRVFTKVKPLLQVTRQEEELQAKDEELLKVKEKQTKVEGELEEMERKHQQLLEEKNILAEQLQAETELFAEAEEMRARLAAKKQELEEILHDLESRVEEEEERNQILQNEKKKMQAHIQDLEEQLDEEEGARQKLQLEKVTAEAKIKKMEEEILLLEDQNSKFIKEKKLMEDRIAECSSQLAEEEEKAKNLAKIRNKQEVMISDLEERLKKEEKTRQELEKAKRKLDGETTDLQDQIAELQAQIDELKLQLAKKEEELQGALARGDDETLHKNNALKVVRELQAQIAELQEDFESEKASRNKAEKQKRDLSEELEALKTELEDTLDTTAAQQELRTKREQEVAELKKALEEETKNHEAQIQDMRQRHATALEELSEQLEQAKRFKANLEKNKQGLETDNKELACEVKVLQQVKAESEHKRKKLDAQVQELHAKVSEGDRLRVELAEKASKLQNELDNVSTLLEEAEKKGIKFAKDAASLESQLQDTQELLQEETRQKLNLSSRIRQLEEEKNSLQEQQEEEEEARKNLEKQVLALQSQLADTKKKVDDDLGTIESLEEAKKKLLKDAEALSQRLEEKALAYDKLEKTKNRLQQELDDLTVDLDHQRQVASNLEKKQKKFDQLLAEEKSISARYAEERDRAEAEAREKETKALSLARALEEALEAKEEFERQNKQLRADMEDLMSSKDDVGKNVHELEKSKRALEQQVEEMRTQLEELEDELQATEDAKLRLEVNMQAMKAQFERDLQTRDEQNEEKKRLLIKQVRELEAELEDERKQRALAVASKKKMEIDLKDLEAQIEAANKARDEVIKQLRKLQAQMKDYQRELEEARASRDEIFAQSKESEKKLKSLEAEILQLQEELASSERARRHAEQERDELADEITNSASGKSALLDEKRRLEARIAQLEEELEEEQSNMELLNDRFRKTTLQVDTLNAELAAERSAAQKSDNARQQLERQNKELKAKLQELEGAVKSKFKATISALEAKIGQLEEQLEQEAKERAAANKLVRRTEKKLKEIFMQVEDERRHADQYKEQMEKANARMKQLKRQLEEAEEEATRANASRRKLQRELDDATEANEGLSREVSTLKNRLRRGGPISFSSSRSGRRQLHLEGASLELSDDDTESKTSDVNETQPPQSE

How the values were obtained:
[1] = target: T1, hMCC-SBP-6×His (human MCC isoform 1 with a C-terminal SBP-6×His tag) (human) (UniProt P23508); assay: co-IP; CHAPS lysates of mitochondria purified from transduced 8226 cells; streptavidin-sepharose beads (hMCC-SBP-6×His); 5 washes; immunoblot
T1 sequence: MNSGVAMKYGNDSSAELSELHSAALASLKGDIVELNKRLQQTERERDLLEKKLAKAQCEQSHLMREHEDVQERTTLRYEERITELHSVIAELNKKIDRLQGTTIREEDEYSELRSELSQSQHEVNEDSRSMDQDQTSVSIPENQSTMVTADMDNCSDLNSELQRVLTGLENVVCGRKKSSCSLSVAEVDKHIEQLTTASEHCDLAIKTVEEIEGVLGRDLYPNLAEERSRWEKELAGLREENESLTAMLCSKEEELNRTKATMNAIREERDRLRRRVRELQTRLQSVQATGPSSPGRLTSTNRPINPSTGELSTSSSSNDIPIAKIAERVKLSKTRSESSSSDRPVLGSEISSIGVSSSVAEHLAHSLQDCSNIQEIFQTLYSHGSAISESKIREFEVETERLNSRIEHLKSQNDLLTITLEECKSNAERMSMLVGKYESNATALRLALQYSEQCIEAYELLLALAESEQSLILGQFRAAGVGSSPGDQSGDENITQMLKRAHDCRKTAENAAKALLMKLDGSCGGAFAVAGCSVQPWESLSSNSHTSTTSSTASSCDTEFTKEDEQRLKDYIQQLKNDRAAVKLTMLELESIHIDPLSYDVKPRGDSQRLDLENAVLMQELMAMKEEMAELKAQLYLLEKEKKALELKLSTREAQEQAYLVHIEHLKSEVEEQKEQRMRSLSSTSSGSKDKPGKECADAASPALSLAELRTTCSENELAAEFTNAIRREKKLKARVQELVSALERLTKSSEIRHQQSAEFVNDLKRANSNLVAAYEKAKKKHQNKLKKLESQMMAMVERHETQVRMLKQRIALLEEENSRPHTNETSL

[2] = target: T1, hMCC-SBP-6×His (human MCC isoform 1 with a C-terminal SBP-6×His tag) (human); assay: co-IP; whole cell CHAPS lysates of transduced 8226 cells; anti-FLAG-agarose beads (FLAG-hMCC) or streptavidin-sepharose beads (hMCC-SBP-6×His); 5 washes in 0.5% CHAPS, 20 mM Tris pH 7.4, 150 mM NaCl; immunoblot
[3] = target: T2, FLAG-hMCC (human MCC isoform 1 with an N-terminal FLAG tag) (human) (UniProt P23508); assay: as above
T2 sequence: T1 sequence

[4] = target: T1, hMCC-SBP-6×His (human MCC isoform 1 with a C-terminal SBP-6×His tag) (human); assay: as above; remark: listed apart in the source
[5] = target: T2, FLAG-hMCC (human MCC isoform 1 with an N-terminal FLAG tag) (human); assay: as above; remark: listed apart in the source

Molecule: VHL (from UniProt P40337 1-213)
binding [2]: no binding
binding [3]: no binding

Molecule: scribble (from UniProt Q14160 1-1655)
binding [2]: no binding
binding [3]: no binding

Molecule: β-catenin (from UniProt P35222 1-781)
binding [2]: no binding
binding [3]: no binding

Further lines, results first:

binding [1]: binds
binding [2]: binds
Molecule: Poly [ADP-ribose] polymerase 1 (from UniProt P09874 1-1014)

binding [2]: no binding
binding [3]: no binding
Molecule: VCP (from UniProt P55072 1-806)

binding [2]: no binding
binding [3]: no binding
Molecule: myosin IIb (from UniProt P35580 1-1976)

binding [4]: no binding
binding [5]: no binding
B1: DFFA (protein, UniProt O00273 1-331)
chain: MEVTGDAGVPESGEIRTLKPCLLRRNYSREQHGVAASCLEDLRSKACDILAIDKSLTPVTLVLAEDGTIVDDDDYFLCLPSNTKFVALASNEKWAYNNSDGGTAWISQESFDVDETDSGAGLKWKNVARQLKEDLSSIILLSEEDLQMLVDAPCSDLAQELRQSCATVQRLQHTLQQVLDQREEVRQSKQLLQLYLQALEKEGSLLSKQEESKAAFGEEVDAVDTGISRETSSDVALASHILTALREKQAPELSLSSQDLELVTKEDPKALAVALNWDIKKTETVQEACERELALRLQQTQSLHSLRSISASKASPPGDLQNPKRARQDPT
